No constants are given. Whether binding was seen depends on the method and setting. Binding seen in cells or lysates may run through a third protein. Binding calls can cover weak binding; strength is not graded here. For some assays here: Sequences can lack the tags named with a protein.
How the values were obtained:
[1] = molecular target: T1, syndecan-1/EGFP fusion protein (human) (UniProt P18827); test: co-IP; Nuclear Complex Co-IP Kit (Active Motif); 100 ug nuclear extract of sub-confluent STAV-AB cells stably transfected with syndecan-1/EGFP or EGFP vector, 3 ug goat polyclonal antibody against the C-terminus of syndecan-1 (C-20), protein G Sepharose; precipitates slot-blotted and probed with anti-FGF-2; no-antibody negative control
T1 sequence: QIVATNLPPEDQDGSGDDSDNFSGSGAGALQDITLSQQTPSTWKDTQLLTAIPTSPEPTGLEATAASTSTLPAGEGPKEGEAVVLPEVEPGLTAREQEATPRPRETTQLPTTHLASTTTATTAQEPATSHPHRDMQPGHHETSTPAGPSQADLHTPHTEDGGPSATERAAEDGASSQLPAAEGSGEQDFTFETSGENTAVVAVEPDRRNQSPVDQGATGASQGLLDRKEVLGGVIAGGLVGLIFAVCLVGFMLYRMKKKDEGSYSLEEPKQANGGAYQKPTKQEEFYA

Sequences of proteins named here, by UniProt entry; tags and fusion partners are left off. A change or cut given only in a name is not applied to a line headed by its entry.
UniProt P09038: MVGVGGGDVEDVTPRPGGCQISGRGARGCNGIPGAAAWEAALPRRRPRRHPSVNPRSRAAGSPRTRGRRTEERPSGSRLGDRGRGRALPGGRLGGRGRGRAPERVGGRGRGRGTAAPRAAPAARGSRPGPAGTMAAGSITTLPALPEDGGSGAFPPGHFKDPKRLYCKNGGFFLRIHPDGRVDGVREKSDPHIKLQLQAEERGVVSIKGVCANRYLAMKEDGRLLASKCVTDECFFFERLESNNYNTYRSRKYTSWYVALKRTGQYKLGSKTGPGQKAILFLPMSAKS

[2] = molecular target: T2, syndecan-1 (human (endogenous in STAV-AB)) (UniProt P18827); test: as above
T2 sequence: T1 sequence

In the case of “basic fibroblast growth factor (FGF-2) (from UniProt P09038)”, the binding [1] is reported as “binds” and the binding [2] is reported as “binds”.
